Measurements taken from paper doi:10.1101/2024.10.25.620379.

By UniProt entry, the sequences of proteins in these tests, tags left out. Where a name states a change or a piece, a line headed by the entry shows the natural chain unless it says otherwise.
UniProt P61960: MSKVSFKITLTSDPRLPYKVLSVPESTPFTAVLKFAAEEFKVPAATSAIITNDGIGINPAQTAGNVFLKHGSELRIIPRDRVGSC

Target: T1, UBA5_(37-346), UBA5 amino acids 37-346, the functional fragment of UBA5 (human) (UniProt Q9GZZ9)
T1 sequence: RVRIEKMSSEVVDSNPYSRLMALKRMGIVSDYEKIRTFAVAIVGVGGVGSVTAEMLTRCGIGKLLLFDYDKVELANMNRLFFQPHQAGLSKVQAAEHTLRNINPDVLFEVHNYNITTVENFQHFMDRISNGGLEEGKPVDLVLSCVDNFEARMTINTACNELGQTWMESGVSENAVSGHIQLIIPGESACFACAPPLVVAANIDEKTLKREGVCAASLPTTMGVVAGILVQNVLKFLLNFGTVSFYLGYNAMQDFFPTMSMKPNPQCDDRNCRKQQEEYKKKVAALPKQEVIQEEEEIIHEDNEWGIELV
Test: charging assay

How did the binding turn out when “ubiquitin-fold modifier 1 (UFM1) (from UniProt P61960)” was run?
Its binding is “binds”.

Results are given in words; binding and its absence hold for the method and conditions named. Binding can be weak; no strength is given.
